Test results published in patent US20220306757A1 (HANGZHOU SUMGEN BIOTECH, published 2022).
These are yes or no findings as the source states them, for the method shown. Some binding calls cover weakened binding; strength is not graded here.

Chains of the proteins cited; added tags and fusions are not shown.
UniProt Q02223: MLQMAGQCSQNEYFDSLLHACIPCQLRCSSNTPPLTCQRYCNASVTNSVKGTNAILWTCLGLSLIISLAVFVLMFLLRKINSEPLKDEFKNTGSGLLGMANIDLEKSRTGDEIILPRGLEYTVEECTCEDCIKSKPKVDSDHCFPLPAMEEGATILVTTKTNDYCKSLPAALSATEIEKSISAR

Tests used:
[1] = biological target: BCMA on CHOS cells stably expressing BCMA (CHOS-BCMA) (UniProt Q02223); experiment: flow cytometry on CHOS-BCMA cells, PE anti-human IgG detection
[2] = biological target: BCMA on CHOS cells stably expressing BCMA (CHOS-BCMA) (UniProt Q02223); experiment: flow cytometry on CHOS-BCMA cells, PE mouse anti-human IgG, mean fluorescence intensity

binding [1]: binds | binding [2]: binds
B1: SG1116 antibody (antibody, human IgG1, V domains shown)
VH: QVQLVQSGPELKKPGETVKISCKASGYTFSRYSMNWVRQAPGKGLEWMGRINTGSGAPIYADDFKGRFTFSVDTSASTAYLVINNLKSEDTASYFCSNDYNYSLDHWGQGTAVTVSS
VL: DIVLTQSPPSLAMSLGKRATISCRASESVTILGSHLIYWYQQKPGQPPTLLIQLASNVQTGVPARFSGSGSRTDFTLTIDPVEEDDVAVYYCLQSRTIPRTFGGGTKLEIK
notes: also called antibody SG1116; SGT116
